The record followed here is paper PMC7819943, “Rice protein-binding microarrays: a tool to detect cis-acting elements near promoter regions in rice”.

This is one part of the list.

For this assay, the target named is T1, OsSMF1 (Oryza sativa, UniProt Q6ZLB0 1-436).
T1 sequence: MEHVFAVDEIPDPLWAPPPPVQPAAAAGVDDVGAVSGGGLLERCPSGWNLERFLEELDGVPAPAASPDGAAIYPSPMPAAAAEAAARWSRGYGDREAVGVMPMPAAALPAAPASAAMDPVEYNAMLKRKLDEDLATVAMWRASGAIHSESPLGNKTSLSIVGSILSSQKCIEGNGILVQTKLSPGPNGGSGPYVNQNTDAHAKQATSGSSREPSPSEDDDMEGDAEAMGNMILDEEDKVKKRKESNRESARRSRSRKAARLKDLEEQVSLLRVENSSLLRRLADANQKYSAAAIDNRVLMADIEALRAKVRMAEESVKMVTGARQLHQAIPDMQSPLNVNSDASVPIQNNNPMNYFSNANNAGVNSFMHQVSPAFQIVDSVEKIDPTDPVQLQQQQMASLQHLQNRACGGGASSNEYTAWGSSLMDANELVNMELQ
As to the kind of experiment: protein-binding microarray (RPBM); PBS, 2% BSA, 51.3 ng/ul salmon testes DNA, 50 uM zinc acetate, 200 nM TF, 25 C, 1 h; high values mean tight binding. The settings on record: protein: recombinant; tags: N-terminal polyhistidine and DsRed monomer fusion (pET32a); chain copies: 2; label: CyDye5-dUTP incorporated in the synthesized complementary strand; 3' TTTTT single-stranded linker to array surface; dsDNA, one strand shown. A digest of the protocol:
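The binding signal is fluorescence intensity per feature, in arbitrary units, read on an Axon 4000B scanner. Polyhistidine- and DsRed-tagged transcription factors (N-terminal fusions) from E. coli BL21-CodonPlus were purified on Ni–NTA and applied at 200 nM for 1 h at 25 °C to a double-stranded, BSA-blocked custom Agilent array in buffer with 50 µM zinc acetate.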
Consider “CACATGTGGACCCACATGTCATTGAGATAGGGGTGGCAAACGGAGTCACCTAGTGCAG”, for which the binding signal is 3780 fluorescence intensity (a.u.).
As for “CGTCGTCTTGTTGCTGCTGACGAGCCCGCTGATTTTGGCTCGGAGTCACCTAGTGCAG”, the figure is 4790 fluorescence intensity (a.u.); as for “TGATGGAATGCAAGCGTGAGTGTATGGCACATGATAACATCGGAGTCACCTAGTGCAG”, 23600 fluorescence intensity (a.u.); as for “CTAAACAGGCCCTAAGCCTGCCATAGAGTGTAAATCATTTCGGAGTCACCTAGTGCAG”, 3140 fluorescence intensity (a.u.).
Consider “ATTGAATTTATCAAATCTTTGTGTTCATCGCGTAAGCATGCGGAGTCACCTAGTGCAG”, for which the binding signal is 3140 fluorescence intensity (a.u.).
As for “GGCCAGGGCCAGTCGCGTCCGCGTTTGATCTCCGTCAGATCGGAGTCACCTAGTGCAG”, the figure is 3700 fluorescence intensity (a.u.); as for “TCACCAACCCGACGTGGCCGCTCTTCCACGTCAACATCCTCGGAGTCACCTAGTGCAG”, 22100 fluorescence intensity (a.u.); as for “GCAGCAGCAGCAGCAGGAGGAGGAGGAGGGAGGAGGATTGCGGAGTCACCTAGTGCAG”, 3310 fluorescence intensity (a.u.).
As for “CACGACAAACTGAGCCAAAATTCACAAGTCTGCGGAGAAACGGAGTCACCTAGTGCAG”, the binding signal is 7060 fluorescence intensity (a.u.).
Next, “GAAGCCATCCACGCGGCACCATCGGACGGCTCTCGCGCCCCGGAGTCACCTAGTGCAG”: 5210 fluorescence intensity (a.u.); “AGCAGGAGGAGGAGGTGGTGGTGGCCATCGACGTGGACCGCGGAGTCACCTAGTGCAG”: 10200 fluorescence intensity (a.u.); “GTATGGTTTTAATTTTATGTGTATTCGGATGACATGGATACGGAGTCACCTAGTGCAG”: 3920 fluorescence intensity (a.u.).
In the case of “TATTTCTTGGCCATACTTTTGCCACATGCCACAACTTACCCGGAGTCACCTAGTGCAG”, the binding signal is 4870 fluorescence intensity (a.u.).
In the case of “ATCTGACTTGGTAGTCCTGACGACCTGACCATACATATGCCGGAGTCACCTAGTGCAG”, the binding signal was 3470 fluorescence intensity (a.u.).
In the case of “GCTGCTAGCTGGCTCAGGCTGTCGTCATGTTCCAAAAGTCCGGAGTCACCTAGTGCAG”, the binding signal was 4960 fluorescence intensity (a.u.).
With “TTTGTATAACATAGTAGTTTTGTCAATATACTTAAGTCACCGGAGTCACCTAGTGCAG”, the binding signal is 3450 fluorescence intensity (a.u.).
As to “CACGTATTCTCCCAAACCGCGTCATCCTCCATCTATCTACCGGAGTCACCTAGTGCAG”, the binding signal is 6980 fluorescence intensity (a.u.).
Next, “GATTCCGTAGTCGTCGTCATCAGTAGTCTATCGATTTTGCCGGAGTCACCTAGTGCAG”: 7900 fluorescence intensity (a.u.); “TTGCTGGCCACAGCTGACGCTGAATGTTGGCCTGCAGCCTCGGAGTCACCTAGTGCAG”: 4900 fluorescence intensity (a.u.).
On to “AGCCTTGTATTACCTGTCAGGTGACAGGTGGGGCCCCAGACGGAGTCACCTAGTGCAG”, for which the binding signal was 4620 fluorescence intensity (a.u.).
Next, “TAGCATCGCCACGCTGACACCGAGACGAGCTCCGACCGCTCGGAGTCACCTAGTGCAG”: 4100 fluorescence intensity (a.u.).
Take “CTCGAGATTCGTGCGGCGGAAAACCGACGGCCGAGATAGGCGGAGTCACCTAGTGCAG”: the binding signal is 31900 fluorescence intensity (a.u.).
Next, “AGTGGGCCCCACCCCGTCCGAGTCAGCGGCAACGGCCGGCCGGAGTCACCTAGTGCAG”: 7140 fluorescence intensity (a.u.).
For “CAATTAAATCTTTACAACAAGATCTCACATGATTATATTTCGGAGTCACCTAGTGCAG”, the binding signal is 12800 fluorescence intensity (a.u.).
Take “CGAGCCACTGCTCACGTGGGCCCGTGGCGTCCCCAGACCCCGGAGTCACCTAGTGCAG”: the binding signal is 5150 fluorescence intensity (a.u.).
As for “GCCCCGTCGACAACAACGGGCTCAGACAACTGCGACAGTGCGGAGTCACCTAGTGCAG”, the figure is 4220 fluorescence intensity (a.u.); as for “CGCCTGCTGCCGCGCCGCCGCGCCGTACGCCCACCTCCCGCGGAGTCACCTAGTGCAG”, 3530 fluorescence intensity (a.u.).
For “CGATATACCTATCCTGACTGGGGACGTGGCGGACACCCATCGGAGTCACCTAGTGCAG”, the binding signal was 9570 fluorescence intensity (a.u.).
As for “CAAGTGAGCCCCACAAGTTGACTCAACAGTCAACAGGGTCCGGAGTCACCTAGTGCAG”, the figure is 4430 fluorescence intensity (a.u.).
In the case of “TCCATGCTAATTCAGCCGCCACGTAGCATAAAACCGGGGTCGGAGTCACCTAGTGCAG”, the binding signal was 13700 fluorescence intensity (a.u.).
In the case of “TCCATCCAGGGAAAGGGTAGGGGAAGGTGGCAATGAGGATCGGAGTCACCTAGTGCAG”, the binding signal was 12200 fluorescence intensity (a.u.).
For “AATACTCATAGTCATAGTCATGCATCCACGACTCTATCATCGGAGTCACCTAGTGCAG”, the binding signal is 4740 fluorescence intensity (a.u.).
Regarding “GGGCCGGGCTGCACGTCATCTCTCACCTTACCTGCGATTTCGGAGTCACCTAGTGCAG”, the binding signal was 10000 fluorescence intensity (a.u.).
As for “TAATATGATATTTTAGAGCAACTTTCATACAGAGAGTTTTCGGAGTCACCTAGTGCAG”, the figure is 3370 fluorescence intensity (a.u.).
Turning to “CTACTACTACCACGCAGCGGGTGACACACACACACACAAACGGAGTCACCTAGTGCAG”, the binding signal is 5000 fluorescence intensity (a.u.).
Next, “AGCAGCAAGCCCATGAAAGAAATGCAGCTTGGTAGGATAGCGGAGTCACCTAGTGCAG”: 28500 fluorescence intensity (a.u.).
For “AAAGCCGTCGTATTGTCATCCGCCGCTCGCTGACTCATTCCGGAGTCACCTAGTGCAG”, the binding signal was 13700 fluorescence intensity (a.u.).
On to “GTCTTCCCGTGTCATCGTCGCCGTCATACACGCCAGCCCGCGGAGTCACCTAGTGCAG”, for which the binding signal was 8200 fluorescence intensity (a.u.).
On to “CGTCAGCCTGCAATCGCTTTCTGGGCCCAATAGTACGGGCCGGAGTCACCTAGTGCAG”, for which the binding signal was 8490 fluorescence intensity (a.u.).
For “GCGTGGCATCTGGCATGTGAGGTGGCTGGCCGGCTTGGTCCGGAGTCACCTAGTGCAG”, the binding signal is 3960 fluorescence intensity (a.u.).
For “TGATGTTTATCAACAGTGTCTCATAAATTACGATATTATTCGGAGTCACCTAGTGCAG”, the binding signal was 28800 fluorescence intensity (a.u.).
With “GATTCATAGTCCTAGAATAAAATCTCATCTTAGATTGCTACGGAGTCACCTAGTGCAG”, the binding signal is 30500 fluorescence intensity (a.u.).
